Results: PubChem BioAssay AID2685 (National Center for Advancing Translational Sciences (NCATS), 2010)
Some of the results follow. The main result of the screen is listed elsewhere. These columns were measured beside it and carry no call. The list favours compounds with an active or inconclusive main result. Words in brackets tell the shape of the fitted curve; partial curves, single points and poor fits give uncertain potencies.

Test: qHTS Assay for Lipid Storage Modulators in Drosophila S3 Cells;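 on cell number change: cells counted by Cell Tracker Red CMTPX staining in the red channel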
Conditions: BODIPY lipid droplet fluorescence, 18-24 h; for cell number change: measured here: cell count max response, cells fed with added oleic acid
Summary of the method: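 Drosophila S3 cells loaded with oleic acid (400 uM, as added) and compounds at several concentrations; lipid droplets imaged by 488-nm laser-scanning cytometry, 500–530 nm intensity and object ratio to cell channel. Percent activity normalized to 20 uM Triacsin C.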

[1] = measured here: lipid fluorescence (Fed channel) AC50, cells fed with added oleic acid
[2] = measured here: cell number channel AC50, cells fed with added oleic acid

| SMILES | cell number change | AC50 [1] | AC50 [2] |
| --- | --- | --- | --- |
| CC(C)CN(C(=O)c1ccc(N2CCCC2=O)cc1)c1c(N)n(Cc2ccccc2)c(=O)[nH]c1=O | -10.1% | 2.31 µM [falling, single point] |  |
| COc1ccc(C(CNC(=O)c2ccc(OCc3ccccc3)cc2)N2CCOCC2)cc1 (centres undefined) | 41% | 10.3 µM [rising, partial curve] | 3.26 µM [rising, partial curve] |
| Cc1[nH]n(-c2ccccc2)c(=O)c1C=NCc1ccco1 | 15.3% | 0.13 µM [falling, full curve, poor fit] | 0.146 µM [falling, full curve, poor fit] |
| COc1ccc(Cl)cc1N1CC(C(=O)Nc2nccs2)CC1=O (centres undefined) | -0.807% | 1.03 µM [falling, full curve, poor fit] |  |
| O=C(Nc1ccc(S(=O)(=O)Nc2ncccn2)cc1)c1cccc(Br)c1 | -6.59% |  |  |
| Cc1ccc(N(C(=O)CNC(=O)c2ccco2)C(C(=O)NC2CCCC2)c2ccncc2)cc1C (centres undefined) | 21% | 29.1 µM [falling, single point] |  |
| COc1ccc(NC(=S)Nc2cccc(S(=O)(=O)N3CCCCC3)c2)cc1 | -32.9% | 29.1 µM [falling, single point] | 29.1 µM [falling, single point] |
| Fc1ccc(C2=Nn3c(Cc4ccccc4)nnc3SC2)cc1 | -27.9% | 6.51 µM [falling, full curve] |  |
| CN=C1SC(CC(=O)Nc2ccccc2F)C(=O)N1/N=C/c1ccc(O)c(OC)c1 (centres undefined) | -61.6% |  | 29.1 µM [falling, single point] |
| COc1cc(NC(=O)[C@@H](NC(=O)N2CCn3c2nc2ccccc23)C(C)C)cc(OC)c1 | -4.48% |  |  |
| O=C(Cc1cccs1)N1CCN(S(=O)(=O)c2cc(Cl)ccc2Cl)CC1 |  | 1.03 µM [rising, full curve, poor fit] | 0.58 µM [falling, single point] |
| COc1ccc(CN2CCC(=O)N([C@H](CO)Cc3ccccc3)CC2)cc1OC | 9.28% | 4.11 µM [falling, partial curve] |  |
| N#Cc1c(N)oc(-c2ccc3c(c2)OCO3)c1-c1ccc2c(c1)OCO2 | 60.4% |  | 0.146 µM [rising, full curve] |
| CC(C)(C)OC(=O)N1CCC(Cc2cc(-c3cccnc3)no2)(C(=O)O)CC1 | -16.1% | 6.51 µM [rising, single point] |  |
| CC1CCCN(C(=O)COC(=O)CNC(=O)c2sc3ccccc3c2Cl)C1 (centres undefined) | 6.85% | 0.13 µM [falling, full curve, poor fit] |  |
| O=S(=O)(c1ccc(Cl)cc1)N1CCN(C(=S)Nc2ccc(F)c(Cl)c2)CC1 | 16.4% | 14.6 µM [rising, partial curve] |  |
| O=C(CSc1ccccc1)Nc1ccc(S(=O)(=O)Nc2ncccn2)cc1 | 16.3% |  |  |
| O=C(CC1SC(N2CCCCC2)=NC1=O)Nc1cccc(C(=O)Nc2ncccc2O)c1 (centres undefined) |  | 0.103 µM [falling, full curve, poor fit] |  |
| O=C(Nc1cccc(C(F)(F)F)c1)c1ccc(Cn2cc(Br)cn2)o1 | 9.12% |  |  |
| CCc1nnc(SCC(=O)Nc2ccc3c(c2)OCO3)n1CC | 13% |  |  |

| SMILES | cell number change | AC50 [1] | AC50 [2] |
| --- | --- | --- | --- |
| COc1ccc(SCCN2CC[C@@H](C(C)(C)C)CCC2=O)cc1 | -38.9% | 0.116 µM [rising, single point] | 4.11 µM [falling, single point] |
| Cc1ccc(C)c(C(=O)COC(=O)c2ccc(Br)o2)c1 | 62.2% | 1.84 µM [rising, partial curve] | 1.84 µM [rising, partial curve] |
| CC(OC(=O)C1CC1C)C(=O)Nc1ccc(Cl)cn1 (centres undefined) | 22.5% |  |  |
| COc1ccnc(-n2cccc2C=O)c1C#N | -5.87% | 14.6 µM [falling, single point] |  |
| CC1=C(C(=O)OC(C)C)C(c2ccc(O)cc2)NC(=O)N1 (centres undefined) | -5.84% |  |  |
| COCCn1c(C)cc(C(=O)COC(=O)CCN2C(=O)c3ccccc3C2=O)c1C | -84.6% | 25.9 µM [falling, partial curve] | 32.6 µM [falling, partial curve, poor fit] |
| Cc1cc2[nH]ncc2cc1NC(N)=S | 57.2% |  | 6.51 µM [rising, partial curve, poor fit] |
| CCN1CCN(C(=S)Nc2cc(S(=O)(=O)N(CC)CC)ccc2C)CC1 | 179% | 14.6 µM [rising, partial curve] | 18.4 µM [rising, partial curve] |
| CCOc1ccccc1NCc1cc(=O)oc2cc(C)c(O)cc12 |  | 29.1 µM [falling, single point] |  |
| CC(=O)Nc1ccc(S(=O)(=O)N2CCN(S(=O)(=O)c3ccccc3)CC2)cc1 | 5.18% | 0.164 µM [falling, full curve, poor fit] |  |
| O=S(=O)(NC1C2CC3CC(C2)CC1C3)c1ccc(F)cc1 (centres undefined) | -43.8% |  | 23.1 µM [falling, partial curve] |
| Cc1ccc(NC(=O)C2C3C=CC4(O3)C2C(=O)N(CCCN2CCCCC2)C4C(=O)NC2CCCCC2)cc1C (centres undefined) | 9.01% | 11.6 µM [falling, single point] |  |
| COC(=O)c1ccccc1NC(=O)CCn1c(=O)oc2ccccc21 | 10.7% | 7.31 µM [rising, partial curve] |  |
| CN(C)CCNC(=O)C(c1ccccc1)c1ccccc1 | 17.2% | 6.51 µM [rising, partial curve, poor fit] | 7.31 µM [rising, single point] |
| CCn1c(SCC(=O)N/N=C/C(C)=C\c2ccco2)nnc1-c1ccccc1 | 1.2% | 6.51 µM [rising, partial curve, poor fit] |  |
| Cc1ccccc1NC(=O)CC(C)S(=O)(=O)c1ccc2c(c1)NC(=O)CO2 (centres undefined) | -11% | 2.59 µM [rising, partial curve] |  |
| COc1cccc(NC(=O)CN(C)C(=O)c2c(-c3c(F)cccc3Cl)noc2C)c1 | -2.28% | 10.3 µM [falling, partial curve, poor fit] |  |
| O=c1c2ccccc2c(-c2ccccc2)nn1Cc1ccc(Cl)cc1 |  | 0.517 µM [falling, full curve, poor fit] |  |
| COc1ccc(Cc2nnc(N/N=C/c3ccc(O)cc3O)[nH]c2=O)cc1OC | 14.8% | 29.1 µM [rising, single point] | 5.8 µM [rising, partial curve] |
| COc1ccc(NC(=O)CN(C)C(=O)Cc2ccc3c(c2)OCCO3)cc1 | 3.5% |  |  |

An excerpt from further up, for reference:

| SMILES | cell number change | AC50 [1] | AC50 [2] |
| --- | --- | --- | --- |
| Cc1cc2[nH]ncc2cc1NC(N)=S | 57.2% |  | 6.51 µM [rising, partial curve, poor fit] |
| CCN1CCN(C(=S)Nc2cc(S(=O)(=O)N(CC)CC)ccc2C)CC1 | 179% | 14.6 µM [rising, partial curve] | 18.4 µM [rising, partial curve] |
| CCOc1ccccc1NCc1cc(=O)oc2cc(C)c(O)cc12 |  | 29.1 µM [falling, single point] |  |
| CC(=O)Nc1ccc(S(=O)(=O)N2CCN(S(=O)(=O)c3ccccc3)CC2)cc1 | 5.18% | 0.164 µM [falling, full curve, poor fit] |  |

Remaining list, next part

| SMILES | cell number change | AC50 [1] | AC50 [2] |
| --- | --- | --- | --- |
| O=C(/C=C/c1ccc(OC(F)F)cc1)Nc1cccc(S(=O)(=O)NC2=NCCCCC2)c1 | 45.4% |  | 18.4 µM [rising, partial curve] |
| Cc1ccccc1-c1nnn(CC(=O)N(C)CC(=O)Nc2ccccc2C(F)(F)F)n1 | -15% |  |  |
| CN(CC(=O)Nc1c(Cl)cccc1Cl)C(=O)c1ccc2ccccc2n1 | 11.7% | 29.1 µM [rising, single point] |  |
| O=C(Nc1nc2ccccc2[nH]1)c1cc2ccccc2o1 | -34.1% |  | 1.84 µM [falling, full curve, poor fit] |
| CCN1C(=O)/C(=C\N(C)C)NC1=S | -6.91% |  |  |
| CCN1CCN(C(CNS(=O)(=O)c2ccc(C)cc2)c2ccccc2)CC1 (centres undefined) | 12.4% |  |  |
| COC(=O)c1ccc(N=Cc2c(-c3ccccc3)[nH][nH]c2=O)cc1 | -18.5% |  |  |
| COc1ccc(-c2nc(-c3ccccn3)nc(N3CCN(C)CC3)c2C#N)cc1 | 9.62% | 2.31 µM [rising, full curve, poor fit] |  |
| COc1ccc(-c2nc(CS(=O)CC(=O)NCc3ccc(Cl)cc3)c(C)o2)cc1OC (centres undefined) | 16.1% | 5.8 µM [rising, single point] |  |
| Cc1ccc(S(=O)(=O)NCCc2c[nH]c3ccccc23)cc1 | 12.7% |  | 0.651 µM [rising, full curve, poor fit] |
| CCCN(CC(=O)Nc1ccccc1OC)C(=O)Cn1[nH]c(=O)c2ccccc2c1=O | 7.09% | 0.13 µM [falling, full curve, poor fit] |  |
| CC(=O)Nc1ccc(NCc2ccc(C)s2)cc1 | 15.4% | 6.51 µM [falling, partial curve, poor fit] |  |
| Cc1ccc2nc(SCC(=O)NC3CCCCC3)nc(=O)n2c1 | 36.2% | 1.16 µM [rising, full curve, poor fit] | 3.66 µM [rising, partial curve] |
| O=C(NCCc1ccccc1)C1CCCN(c2nc3ccccc3s2)C1 (centres undefined) | 32.1% |  | 0.103 µM [rising, full curve, poor fit] |
| CCOc1ccc(CNC(=O)C2CCN(c3nnc(C)c4c(C)n(-c5ccc(C)cc5)nc34)CC2)cc1 | 51.5% | 29.1 µM [falling, single point] | 29.1 µM [rising, single point] |
| O=C(NCCCCO)C(F)(F)C(F)(F)C(F)(F)C(=O)NCCCCO | 35.8% |  | 11.6 µM [rising, partial curve] |
| O=C(NCc1ccco1)c1cc(-c2ccccn2)nc2ccccc12 | -7.01% | 0.00461 µM [rising, full curve, poor fit] |  |
| Nc1cc(N2CCCC2)c(Cl)cc1[N+](=O)[O-] | -42.6% | 18.4 µM [falling, single point] |  |
| O=C(Nc1ccccc1C(=O)N1CCOCC1)c1cc2ccccc2o1 | -23.6% | 7.31 µM [falling, partial curve, poor fit] |  |
